This passage reports binding results from publication PMC2712759, “Hsp70 Chaperones and Type I PRMTs Are Sequestered at Intranuclear Inclusions Caused by Polyalanine Expansions in PABPN1” (PLoS ONE, 2009).

Protein sequences, listed by entry. Tags and fused reporters are not part of them.
UniProt Q922H1: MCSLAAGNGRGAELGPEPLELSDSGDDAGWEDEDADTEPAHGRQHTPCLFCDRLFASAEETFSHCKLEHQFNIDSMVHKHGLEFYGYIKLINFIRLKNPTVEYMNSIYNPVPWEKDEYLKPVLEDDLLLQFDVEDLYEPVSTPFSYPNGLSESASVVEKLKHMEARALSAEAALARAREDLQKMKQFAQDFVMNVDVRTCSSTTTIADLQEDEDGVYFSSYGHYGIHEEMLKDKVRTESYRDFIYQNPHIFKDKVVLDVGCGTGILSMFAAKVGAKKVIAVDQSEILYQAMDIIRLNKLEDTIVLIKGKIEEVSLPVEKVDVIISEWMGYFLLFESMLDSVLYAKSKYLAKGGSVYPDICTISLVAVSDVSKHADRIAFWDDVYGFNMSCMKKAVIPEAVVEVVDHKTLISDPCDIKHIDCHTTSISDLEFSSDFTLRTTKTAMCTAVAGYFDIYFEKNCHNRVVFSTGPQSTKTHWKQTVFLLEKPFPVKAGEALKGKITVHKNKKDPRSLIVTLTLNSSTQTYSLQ
UniProt Q9JIF0: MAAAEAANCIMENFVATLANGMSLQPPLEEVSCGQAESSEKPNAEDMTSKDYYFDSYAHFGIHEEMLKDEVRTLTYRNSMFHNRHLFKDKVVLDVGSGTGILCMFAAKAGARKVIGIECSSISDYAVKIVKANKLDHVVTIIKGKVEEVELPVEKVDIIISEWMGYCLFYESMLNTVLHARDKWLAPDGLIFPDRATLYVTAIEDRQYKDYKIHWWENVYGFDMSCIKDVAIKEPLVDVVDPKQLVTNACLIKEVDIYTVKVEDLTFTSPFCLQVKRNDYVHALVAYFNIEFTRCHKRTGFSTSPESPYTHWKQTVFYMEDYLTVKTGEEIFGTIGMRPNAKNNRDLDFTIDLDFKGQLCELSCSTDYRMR

Results are given in words; binding and its absence hold for the method and conditions named. Binding seen in cells or lysates may run through a third protein. Some results given as binding are weak or reduced against the parent protein; the word gives no strength. Where a sequence is shown, tags or fusion partners need not be part of it.

Experiment [1] concerns the target T1, expanded human PABPN1, tract of 17 alanine residues, His-tagged, biotinylated (human) (UniProt Q86U42).
T1 sequence (chain, biotin (EZ-Link PEO-Maleimide Activated Biotin)): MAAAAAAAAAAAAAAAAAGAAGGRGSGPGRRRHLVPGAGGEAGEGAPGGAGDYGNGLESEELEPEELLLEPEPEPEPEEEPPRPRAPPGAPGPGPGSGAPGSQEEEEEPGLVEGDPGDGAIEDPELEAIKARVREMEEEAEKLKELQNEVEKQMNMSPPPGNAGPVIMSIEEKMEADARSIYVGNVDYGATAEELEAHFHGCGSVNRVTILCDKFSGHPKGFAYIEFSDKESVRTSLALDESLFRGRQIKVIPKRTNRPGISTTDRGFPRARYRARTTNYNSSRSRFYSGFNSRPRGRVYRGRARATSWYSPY
In words: pull-down; biotinylated His-PABPN1 (2 µg) on streptavidin-agarose beads, incubated with RNase A-treated extracts of C2 myoblasts and myotubes, 4 h at 4°C, 20 mM Tris pH 8.0, 200 mM KCl, 10% glycerol; bound proteins detected by immunoblot; only the target purified. (In general: In western blotting, separated proteins are transferred to a membrane and probed.)

For experiment [2], the target named is T2, normal human PABPN1 (poly(A)-binding protein nuclear 1), homopolymer of 10 alanine residues, His-tagged, biotinylated (human) (UniProt Q86U42).
T2 sequence (chain, biotin (EZ-Link PEO-Maleimide Activated Biotin)): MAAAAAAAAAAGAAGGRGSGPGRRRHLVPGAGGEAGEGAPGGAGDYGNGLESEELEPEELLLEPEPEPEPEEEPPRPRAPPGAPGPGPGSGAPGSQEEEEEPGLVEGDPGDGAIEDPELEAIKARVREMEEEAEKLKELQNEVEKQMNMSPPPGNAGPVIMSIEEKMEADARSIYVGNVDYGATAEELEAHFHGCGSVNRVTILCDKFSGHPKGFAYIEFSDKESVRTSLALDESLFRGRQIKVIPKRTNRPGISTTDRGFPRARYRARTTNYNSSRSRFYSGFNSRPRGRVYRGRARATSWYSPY
The experiment is described as above.

In the case of “PRMT3 (protein arginine methyl transferase 3) (from UniProt Q922H1 1-528) (enzyme)”, the binding entry in experiment [1] and in experiment [2] was “binds” in each case.

As for “PRMT1 (protein arginine methyl transferase 1) (from UniProt Q9JIF0 1-371) (enzyme)”, the binding entry in experiment [1] and in experiment [2] was “binds” each time.
